Measured values taken from PubChem BioAssay AID2417 (National Center for Advancing Translational Sciences (NCATS), 2010).
Screen size: about 140,000 compounds; about 4,300 (3.1%) were called active. The shares of active, inactive and inconclusive entries below differ from those in the screen.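 The calls were made as follows: active = readout at or below -70, meaning at least 70% loss of cells showing the perinucleolar compartment, a nuclear body marking cancer cells; inconclusive = readout between -30 and a set limit; inactive = the rest.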

assay: High Content Assay for Compounds that inhibit the Assembly of the Perinucleolar Compartment; settings: PC3M PTB-GFP, PNC prevalence imaging, 16 h; at 10 µM; stronger effect = lower value;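 also: plate controls were DMSO wells for no effect and camptothecin positive control wells for full effect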
Procedure, shortened: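 Compounds are pinned in duplicate onto adhered PC3M cells stably expressing GFP-tagged PTB and incubated 16 h at 37 C. Cells are then fixed, nuclei stained with Hoechst, and PNC-positive cells counted.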

Compound	activity change (PNC), negative = inhibition
COc1ccc2c(c1)c(C(=O)N/N=C/c1ccc(O)c(O)c1)c(C)n2C	inconclusive: -42.2%
CCCCc1c(C)nc2ccc(Br)cc2c1SCCC#N	inconclusive: -41.6%
O=C(Cc1cccs1)N(Cc1cccs1)C1(C(=O)NC2CCCCC2)CCCCC1	inconclusive: -50.8%
COc1ccc(-n2nc(C(=O)Nc3nc4ccc(OC)cc4s3)c3ccccc3c2=O)cc1	inactive: -9.72%
COc1ccc(C2C(C(C)=O)=C(Nc3ccccc3)CC(C)(O)C2C(C)=O)cc1OC (centres undefined)	active: -119%
O=S(N1CCCCCC1)C12CC3CC(CC(C3)C1)C2 (centres undefined)	inconclusive: -33.4%
O=c1c2ccccc2nc(/C=C/c2c[nH]c3ccccc23)n1-c1ccc([N+](=O)[O-])cc1	inconclusive: -47.1%
Cc1cc(C(F)(F)F)nc(NCc2ccc(F)cc2)n1	inconclusive: -32.7%
CCCCCOc1ccc(Br)cc1CSC(=N)N	inconclusive: -38.3%
CC(=O)Nc1ccc(S(=O)(=O)Nc2nc3ccccc3nc2Nc2ccc3ccccc3c2)cc1	inconclusive: -65.6%
N/C(=N\S(=O)(=O)c1ccc(Cl)s1)c1ccccc1	inconclusive: -62.4%
CC(NC(=O)C1CCCC1)C1CC2CCC1C2 (centres undefined)	inactive: 15.1%
Nc1ncnc(Nc2ccc(F)cc2)n1	active: -90.5%
CC(NCCC(c1ccccc1)c1ccccc1)c1ccccc1 (centres undefined)	inconclusive: -31.3%
CCC(=O)NC(O)C(=O)c1ccc(C)cc1 (centres undefined)	inconclusive: -58.4%
O=C(CCn1cccc1)NC1CCCc2ccccc21 (centres undefined)	inconclusive: -33.5%
Cc1cc(C)c(S(=O)(=O)N(CC(=O)N2CCCC2)C2CCCCC2)c(C)c1	inconclusive: -36.7%
COc1cc(CNn2c(C)n[nH]c2=S)cc(Cl)c1OCc1ccc(F)cc1	inactive: -7.23%
O=C1CCc2cc(S(=O)(=O)N3CCN(C(=O)c4ccco4)CC3)ccc2N1	inconclusive: -50%
COc1ccc(C(=O)N2CCN(S(=O)(=O)c3ccc(Cl)cc3)CC2)cc1OC	inconclusive: -33%

3 entries already listed, ordered by molar mass, rising:
Compound	activity change (PNC), negative = inhibition
CCC(=O)NC(O)C(=O)c1ccc(C)cc1 (centres undefined)	inconclusive: -58.4%
CC(NC(=O)C1CCCC1)C1CC2CCC1C2 (centres undefined)	inactive: 15.1%
O=C(CCn1cccc1)NC1CCCc2ccccc21 (centres undefined)	inconclusive: -33.5%

(further entries)

Compound	activity change (PNC), negative = inhibition
COc1cccc(NC(=O)CSc2nnc(Cc3cccn3C)n2-c2ccc(F)cc2)c1	inactive: -17.9%
O=C(c1ccc(Br)s1)N1CCN(c2ncccn2)CC1	inconclusive: -64.3%
CCCSc1nnc(Cn2c(=O)sc3ccccc32)n1-c1ccccc1	inconclusive: -31.6%
C#CCONC(=O)c1cc(OCC(F)(F)F)ccc1OCC(F)(F)F	inactive: 81.2%
Cc1cc(C)c(S(=O)(=O)NCc2cn3c(C)csc3n2)c(C)c1	inconclusive: -61%
O=C1NC(c2ccco2)Nc2ccccc21 (centres undefined)	inconclusive: -64%
CC(C)=C1C2CCC1C1C(=O)N(c3nc(-c4ccccc4)c(C)s3)C(=O)C21 (centres undefined)	inactive: 41.6%
Cc1cccc(CSc2nnnn2-c2ccccc2)c1	inconclusive: -62.5%
COc1ccccc1-n1c(SCC(=O)N2CCCCC2)nc2cccnc21	inactive: 21.8%
CN(C)c1ccnc(-n2cccc2/C=N/OCc2ccccc2)c1C#N	inconclusive: -30.2%
Cc1ccc(C)c(C(=O)CC2(O)C(=O)N(C)c3ccccc32)c1 (centres undefined)	inconclusive: -50%
CC1(C)CC(NC(=O)c2coc(=O)c(Br)c2)CC(C)(C)N1	active: -100%
C=CCn1c(SCc2cc(C(C)=O)ccc2OCC)nc2ccccc2c1=O	inconclusive: -73%
CCCOP(=O)(OCCC)C(NC(=O)C(C)(C)C)c1ccccc1 (centres undefined)	inconclusive: -33.5%
CCOCCCn1c(=S)[nH]c2cc3c(cc2c1=O)OCO3	inconclusive: -30.8%
CCN(CC)CCNC(=O)c1cc2c(-c3ccc(Cl)cc3)nn(C)c2s1	inactive: 4.47%
CCOc1ccc2nc(N3C(=O)/C(=C/c4ccc(Cl)cc4)NC3=S)sc2c1	inconclusive: -36.8%
CCOC(=O)c1sc(NC(=O)C2CC2)nc1C	inactive: -12.9%
Cc1nc(CCNS(=O)(=O)c2cccs2)cs1	inconclusive: -30.1%
O=C(NC1CCCC1)c1ccc(Br)o1	active: -85%

In the list so far, these have a cyano group:
Compound	activity change (PNC), negative = inhibition
CCCCc1c(C)nc2ccc(Br)cc2c1SCCC#N	inconclusive: -41.6%
CN(C)c1ccnc(-n2cccc2/C=N/OCc2ccccc2)c1C#N	inconclusive: -30.2%

(cont.)

Compound	activity change (PNC), negative = inhibition
CC1(C)CC(=O)c2sc(NC(=O)C3COc4ccccc4O3)nc2C1 (centres undefined)	inconclusive: -37.4%
Cc1cccc(C)c1NC(=O)CSc1nnc(-c2ccccc2)n1Cc1ccc2c(c1)OCO2	inconclusive: -66.7%
COc1ccc(C2N=C(N)N=C(N)N2c2ccc(C)cc2)cc1 (centres undefined)	inconclusive: -31.3%
CCCCn1c(-c2csc(C(C)C)c2)n[nH]c1=S	active: -109%
O=C(CCCN1C(=O)c2ccccc2C1=O)N1CCc2ccccc2C1	inconclusive: -46.8%
CC(C)OC(=O)c1c2c(n3ccccc13)C(=O)c1ccccc1C2=O	inconclusive: -31%
CC(C)CCN1C(=O)c2ccccc2C1C(=O)NCc1cccnc1 (centres undefined)	inactive: 6.43%
COc1ccccc1N(CC(O)COc1ccc(C)cc1)S(=O)(=O)c1ccccc1 (centres undefined)	inconclusive: -56.6%
c1ccc(-c2csc(NC3=NCCCCC3)n2)cc1	inconclusive: -71.1%
COc1ccc(CCNC(=O)C2CCCN2C(=O)NC2CCCCC2)cc1OC (centres undefined)	inactive: -20.3%
CCCC(=O)OCC(=O)Nc1ccc(OC(F)F)cc1	inconclusive: -43.7%
Cc1cc(NC(=O)CCC(=O)NNC(=O)c2ccc(C(C)(C)C)cc2)no1	inconclusive: -65.8%
CC(C)CCC(O)(CCC(C)C)C(=O)NN1CCCCC1	inconclusive: -46.4%
CCc1ccc(NC(=O)C(=O)NCCN2CCN(C(=O)c3ccco3)CC2)cc1	inactive: 22%
Cc1cc2ncn(CCOc3ccccc3C#N)c2cc1C	inconclusive: -62%
Cc1ccc(C2CC(C(F)(F)F)n3nc(C(=O)NCCN4CCOCC4)cc3N2)cc1 (centres undefined)	inconclusive: -40.6%
COc1ccccc1CNC(=O)CCn1c(=O)[nH]c2ccsc2c1=O	active: -100%
CC(C)NC(=O)C1CCN(C(=O)N(C)C)CC1	inconclusive: -64.3%
Cc1ccc(C)c(-n2c3nc(=O)[nH]c(=O)c-3cc3cc([N+](=O)[O-])ccc32)c1	active: -116%
